These are yes or no findings as the source states them, for the method shown. In cells and extracts the contact can be indirect. Tags and fused reporters may be left off the sequences shown.

By UniProt entry, the sequences of proteins in these tests, tags left out.
UniProt P29590: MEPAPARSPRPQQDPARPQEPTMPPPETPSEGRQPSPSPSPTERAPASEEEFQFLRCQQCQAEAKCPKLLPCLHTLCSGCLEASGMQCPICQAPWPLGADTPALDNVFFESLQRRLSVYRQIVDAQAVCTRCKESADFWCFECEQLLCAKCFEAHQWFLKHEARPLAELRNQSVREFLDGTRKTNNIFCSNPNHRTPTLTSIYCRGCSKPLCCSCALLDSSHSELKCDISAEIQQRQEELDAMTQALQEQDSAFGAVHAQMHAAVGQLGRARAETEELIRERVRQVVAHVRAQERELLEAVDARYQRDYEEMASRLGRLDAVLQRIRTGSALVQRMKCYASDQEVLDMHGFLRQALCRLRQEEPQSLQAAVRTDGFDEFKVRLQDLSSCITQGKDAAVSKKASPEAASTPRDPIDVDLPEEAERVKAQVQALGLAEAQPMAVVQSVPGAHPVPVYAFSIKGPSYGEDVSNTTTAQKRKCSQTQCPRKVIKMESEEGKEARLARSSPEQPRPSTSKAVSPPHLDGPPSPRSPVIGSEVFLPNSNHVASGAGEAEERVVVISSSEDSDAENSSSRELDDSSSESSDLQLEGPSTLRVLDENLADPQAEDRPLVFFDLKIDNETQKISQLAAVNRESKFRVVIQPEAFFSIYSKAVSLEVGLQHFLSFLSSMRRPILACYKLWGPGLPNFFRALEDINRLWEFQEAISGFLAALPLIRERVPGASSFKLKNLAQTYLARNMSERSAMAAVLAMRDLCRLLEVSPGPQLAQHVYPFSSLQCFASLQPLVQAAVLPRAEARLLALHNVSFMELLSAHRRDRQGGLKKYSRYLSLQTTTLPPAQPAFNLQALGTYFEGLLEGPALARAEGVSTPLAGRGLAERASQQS
UniProt P19793: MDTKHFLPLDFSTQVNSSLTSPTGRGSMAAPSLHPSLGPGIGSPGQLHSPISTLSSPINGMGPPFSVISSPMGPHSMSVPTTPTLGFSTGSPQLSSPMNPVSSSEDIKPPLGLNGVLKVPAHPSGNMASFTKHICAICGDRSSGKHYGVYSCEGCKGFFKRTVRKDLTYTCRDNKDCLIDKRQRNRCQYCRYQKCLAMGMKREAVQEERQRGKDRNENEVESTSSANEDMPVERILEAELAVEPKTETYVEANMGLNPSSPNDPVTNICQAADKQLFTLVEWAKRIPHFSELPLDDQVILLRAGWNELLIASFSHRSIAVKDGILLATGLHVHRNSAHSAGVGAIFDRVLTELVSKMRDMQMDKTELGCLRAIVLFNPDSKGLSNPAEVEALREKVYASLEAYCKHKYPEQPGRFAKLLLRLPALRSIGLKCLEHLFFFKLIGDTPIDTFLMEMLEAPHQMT

The target of this assay is T1, GST-tagged S100A3 (human) (UniProt P33764).
T1 sequence: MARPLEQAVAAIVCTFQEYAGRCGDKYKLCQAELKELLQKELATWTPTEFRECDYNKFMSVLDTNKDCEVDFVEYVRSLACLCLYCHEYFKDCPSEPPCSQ
Nature of the assay: pull-down; GST-S100A3 (GST as negative control) conjugated to Glutathione-Sepharose beads, incubated with extracts of transfected COS-7 cells; western blot of the precipitates; only the target purified.

As for PML (from UniProt P29590 1-882), the binding entry is “no binding”.
Under “RXRα (from UniProt P19793 1-462) (receptor)” stands “no binding”.
